The supplement of paper PMC3334620
The full ranking holds about 33,000 sequences; the median of “E-score (-0.5 to 0.5)” is about -8e-05, and the highest 2% start at about 0.23. The list shows a part of the results.

Target: T1, Nrg2 (UniProt P38082)
T1 sequence: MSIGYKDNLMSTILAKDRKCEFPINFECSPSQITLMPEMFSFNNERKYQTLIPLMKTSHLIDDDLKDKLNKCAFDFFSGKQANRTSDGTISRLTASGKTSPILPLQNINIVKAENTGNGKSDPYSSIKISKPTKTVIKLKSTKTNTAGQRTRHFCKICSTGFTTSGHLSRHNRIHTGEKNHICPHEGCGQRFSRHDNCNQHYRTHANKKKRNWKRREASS
Assay: PBM E-score (8-mer binding enrichment) (E-score (-0.5 to 0.5)); higher = stronger / more preferred TF binding
Conditions: protein concentration: 100 nM; construct: GST-full length
Procedure: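 Universal 'all 10-mer' protein binding microarrays (Agilent AMADID 015681) probed with GST-tagged S. cerevisiae TFs (full-length or DBD) made by in vitro transcription/translation (PURExpress), about 100-200 nM. Bound TF was detected with fluorescent anti-GST. Each ungapped 8-mer (which stands for itself and its reverse complement) is scored by the PBM enrichment score (E-score), a modified Wilcoxon-Mann-Whitney statistic from -0.5 to +0.5, computed with the Universal PBM Analysis Suite. Scale: above 0.35 generally sequence-specific binding.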

Row | Sequence | PBM E-score
1 | GCACTAGA | -0.0716
2 | ATCAGAGC | 0.0588
3 | CTAGCCCC | -0.112
4 | AACGATAG | 0.0288
5 | ATACGTTA | 0.0888
6 | ACCCTCTA | -0.0379
7 | ATCCGGAA | 0.186
8 | AACGACAC | 0.193
9 | ATAGTCCC | 0.0788
10 | CATCTTTA | -0.125
11 | AAAATTAT | 0.206
12 | AACTGCGT | -0.135
13 | ACATGGAT | -0.0502
14 | ATCTTCAT | 0.084
15 | CTTGTTTC | 0.0127
16 | GATGAACA | -0.00497
17 | ACGGGCAG | 0.0319
18 | CCACAGTA | 0.00416
19 | GAGATTAA | 0.0859
20 | ATTTGTTA | 0.113
21 | AGAGGCTC | -0.273
22 | CATTAATG | 0.0471
23 | GGGACTAC | 0.0857
24 | CTGATTAA | 0.114
25 | CTTTTCAC | 0.0908

Row | Sequence | PBM E-score
26 | AATATGCC | -0.0331
27 | CTTGGTAC | 0.121
28 | CAGTAATA | 0.161
29 | CGAGCGGA | -0.205
30 | CAATGCAC | 0.0917
31 | GAGGGCGC | -0.117
32 | CATAGATG | -0.155
33 | GGAGAGCA | -0.186
34 | GACGCAGA | 0.152
35 | GGAAGGAC | -0.193
36 | GAGTTAAA | -0.0372
37 | AATCGTTC | 0.0566
38 | ATCTGAAG | -0.106
39 | AAGTACAG | 0.0525
40 | AGTTGATG | 0.0887
41 | CCTGGGTC | -0.0664
42 | CGCAGCAA | -0.0726
43 | AAATTGCT | -0.0593
44 | ATCCCAAG | -0.141
45 | GGGCGCTA | -0.206
46 | ACCCACAC | 0.0599
47 | TGTCTAAA | 0.0915
48 | ATCTTATC | 0.0921
49 | CGTCCAAG | -0.158
50 | ACCCGCGA | 0.174

Row | Sequence | PBM E-score
51 | AGATGTCG | 0.0587
52 | AACTCGGG | -0.0267
53 | CCTAAGAC | -0.165
54 | AGGCGGCA | -0.257
55 | GGCAACCC | -0.132
56 | CATGGTCG | -0.0584
57 | AACACATT | 0.161
58 | CAACACTA | 0.147
59 | ACTATGCT | 0.058
60 | GAAATGGA | 0.06
61 | AGTTGTCG | 0.155
62 | TTAAATAA | 0.186
63 | ACAAGGCG | 0.0141
64 | TCGCGCAA | 0.0928
65 | ATCCGTAA | -0.136
66 | CGTGGAGC | -0.0607
67 | CAGGAATG | -0.0903
68 | CGCGCCTA | 0.0636
69 | GAGCAGAA | -0.05
70 | TGAGTAAA | 0.159
71 | GGATAGGA | -0.0321
72 | ACTTGGAT | 0.069
73 | AAAAAAAT | 0.14
74 | GAAAACGA | 0.0248
75 | CTCAGAGC | -0.145

Row | Sequence | PBM E-score
76 | TGGTAACA | -0.0489
77 | AGAGTAGC | -0.189
78 | AAATTACC | 0.0708
79 | GAGAAAAC | 0.0966
80 | ATAATTGG | 0.128
81 | ATATGAAA | 0.197
82 | AATATAGT | 0.206
83 | TCCGACCA | -0.0775
84 | CTGCAGTC | -0.108
85 | TATCAGAA | 0.0656
86 | ATGAGTTC | -0.0453
87 | AGACTATG | -0.111
88 | ATAACCGG | -0.104
89 | GTATTATA | 0.254
90 | ACCGCGAT | 0.097
91 | AAGATCCC | 0.132
92 | AGGCGATC | -0.106
93 | GGATGAGA | -0.0943
94 | ATTGGTGA | 0.0148
95 | CGTGGTGC | -0.232
96 | ATTACACA | 0.0862
97 | CCACATGC | 0.149
98 | GAGTTCAA | 0.0393
99 | CGGTTTGC | -0.0375
100 | AAAGATTG | -0.0435

Row | Sequence | PBM E-score
101 | ACTTAGGG | 0.0512
102 | GGGCGGCA | -0.163
103 | CTGAATCC | 0.0803
104 | AGCCTCAG | 0.0157
105 | CCGAGCGG | -0.165
106 | AGGAATCG | 0.057
107 | CATGGTGC | -0.0905
108 | GTCATTTA | 0.016
109 | AGGGTTTG | 0.172
110 | CACCGCGC | -0.0311
111 | AAGTTTAG | -0.0161
112 | ATCACACG | -0.0408
113 | ATTCTGAA | 0.0558
114 | CGGTTTGA | -0.0448
115 | CAGGAGCA | -0.0471
116 | GCGGCCGA | 0.0944
117 | CATCGTCC | 0.0229
118 | AAGACTGC | -0.221
119 | AGCGACTG | -0.168
120 | TAAATAGA | -0.125
121 | ACACAGCA | 0.0931
122 | AACAGCAG | 0.0762
123 | AGATGCAA | 0.0554
124 | AACAGACA | 0.225
125 | CAATTCCG | 0.135

Six entries drawn at random from those above, as already listed:
Row | Sequence | PBM E-score
111 | AAGTTTAG | -0.0161
114 | CGGTTTGA | -0.0448
121 | ACACAGCA | 0.0931
109 | AGGGTTTG | 0.172
125 | CAATTCCG | 0.135
116 | GCGGCCGA | 0.0944

(next part)

Row | Sequence | PBM E-score
126 | GACAGACC | 0.0299
127 | AGATTCTC | -0.0109
128 | CTGATCAG | 0.0207
129 | AACAATAG | -0.124
130 | GCACTTGA | 0.00018
131 | CGTATCAA | -0.0136
132 | ATCACGAC | -0.0381
133 | TGATTCCA | -0.0557
134 | ATGCGCTC | -0.0254
135 | ACACCTTA | 0.0638
136 | CACATGTC | -0.0919
137 | AATGCAGG | 0.0903
138 | ATTGTCGA | 0.0199
139 | ACATAAGA | 0.0974
140 | ATGCGCCG | 0.0667
141 | ACTACGAT | 0.0855
142 | CAGGAGCC | -0.276
143 | AGTGCGCA | 0.135
144 | AGGTTGGC | -0.0231
145 | GTGGCACA | -0.167
146 | AGTGTACC | -0.0931
147 | CTTTTTTC | -0.0316
148 | CTGGTTCC | 0.158
149 | GCCGGCGC | 0.0423
150 | TAGCCCGA | -0.049

Row | Sequence | PBM E-score
151 | CCGATGAA | 0.0696
152 | GATCCTGC | 0.0394
153 | AGAGTCCT | -0.126
154 | GACCCAGA | 0.0516
155 | CACTTATG | 0.0308
156 | TACTGCCA | 0.067
157 | CCCGAAGC | -0.0863
158 | TCTTCTCA | -0.0396
159 | CGCGGGAG | -0.0164
160 | GCGCCAAC | 0.0893
161 | ATTAAAAC | 0.241
162 | ACCAGAGT | -0.219
163 | ATTGAATC | -0.00839
164 | AGAGAAGG | -0.0745
165 | AGACTAAG | -0.00848
166 | ATTTCACG | 0.0656
167 | GAGCTTGA | -0.107
168 | CGGAACCC | 0.146
169 | ACCTGCTA | 0.00127
170 | AGTTGAGG | 0.00192
171 | ACTTATCC | -0.0934
172 | AAGGTTTC | -0.0346
